PubChem BioAssay AID504744, Drosophila RNAi Screening Center, 2011

Assay: 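Identify dsRNAs that increase or decrease phospho-dAkt after insulin treatment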 (primary screen)
Cell system: Drosophila Kc167 cells
Reagents: long dsRNA against Drosophila genes, 250 ng dsRNA per well of a 384-well plate
Timing: 3 days of knock-down, then overnight serum-free starvation before stimulation
Treatment: bovine insulin at 387 nM for 10 minutes after 12 h without serum
Read-out: 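Per-well phospho-dAkt level from an in-cell fluorescent antibody stain, divided by a DNA-dye signal; log2 residuals turned into z-scores that take cell number into account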
Hit rule: 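Hit in the insulin screen when the two-replicate mean z-score is more extreme than plus or minus 2.5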
The screen tested about 23,000 reagents; this is an unselected part of those with a known target gene and a result. In the full data, 98 (0.43%) got an active call. 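Only hit calls are given; the phospho-dAkt signals, z-scores and hit direction were not deposited.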 Names joined by + are all predicted targets of the reagent.

For dpy [DRSC00233], how do the results read?
activity call: inactive

With dpy [DRSC00234], what was measured?
activity call: inactive

For dpy [DRSC00472], what does the deposit list?
activity call: inactive

With CG1647 [DRSC15134], what was measured?
activity call: inactive

What did the screen give for Gr59b [DRSC04179]?
activity call: inactive

For Tnpo [DRSC11309], what was measured?
activity call: inactive

For Pdp1 [DRSC08896], what was measured?
activity call: inactive

For Pdp1 [DRSC08897], what was measured?
activity call: inactive

How did the screen score Pdp1 [DRSC11251]?
activity call: inactive

Records listed so far whose target name starts with P or p:
Pdp1 [DRSC08896] | activity call = inactive
Pdp1 [DRSC08897] | activity call = inactive
Pdp1 [DRSC11251] | activity call = inactive

More records follow.
Which result is listed for CG30392 [DRSC22341]?
activity call: inactive

With dimm [DRSC03100], what does the deposit list?
activity call: inactive

With Os-C [DRSC16778], what was measured?
activity call: inactive

What did the screen give for eIF3i [DRSC03464]?
activity call: inactive

What did the screen give for fln [DRSC11346]?
activity call: inactive

What is on record for CG45002 [DRSC20144]?
activity call: inactive

For CG13538 [DRSC04180], what does the deposit list?
activity call: inactive

With wdp [DRSC04367], how do the results read?
activity call: inactive

Which result is listed for a5 [DRSC00798]?
activity call: inactive

Which result is listed for MrgBP [DRSC06417]?
activity call: inactive

For CG18477 + CG31780 [DRSC01955], what was measured?
activity call: inactive

For Agps [DRSC05984], what was measured?
activity call: inactive

For 4E-T [DRSC17201], what does the deposit list?
activity call: inactive

What is on record for 4E-T [DRSC17208]?
activity call: inactive
